The nature of data set [1]: In vitro reaction with ammonia (TLC monitoring, product isolation). As to conditions: 0.5 mmol each in water/alcohol, 37±5° C.
A short description of data set [2]: In vitro reaction with phenethylamine (TLC monitoring, product isolation). As to conditions: 0.5 mmol each in water/alcohol, 37±5° C.

The results in this text go back to patent publication US20040024056A1, “Dihydrofuran cyclic tanshinones used in treating hyperammonemia and hepatic encephalopathy” (priority 2001, published 2004).

As for `Cc1cccc2c3c(ccc12)C1=C(C(=O)C3=O)C(C)CO1` (stereo not drawn) [Dihydortanshinone I, 1,6-dimethyl-1,2-dihydrophenanthrene[1,2-b]furan-10,11-dione], the “In vitro reaction with ammonia” value in data set [1] was “can react with ammonia in vitro”. Besides, the “In vitro reaction with phenethylamine” value in data set [2] is recorded as “can react with phenethylamine in vitro”.
As to `C[C@H]1COC2=C1C(=O)C(=O)c1c2ccc2c1CCCC2(C)C` [Cryptotanshinone, 1,6,6-trimethyl-1,2,6,7,8,9-hexahydrophenanthrene[1,2-b]furan-10,11-dione], the “In vitro reaction with ammonia” value in data set [1] is “can react with ammonia in vitro”. Besides, the “In vitro reaction with phenethylamine” value in data set [2] is recorded as “can react with phenethylamine in vitro”.
For `Cc1coc2c1C(=O)C(=O)c1c-2ccc2c1CCCC2(C)C` [Tanshinone IIA], the “In vitro reaction with ammonia” value in data set [1] is “No apparent reaction”. Besides, the “In vitro reaction with phenethylamine” value in data set [2] was “No apparent reaction”.
